The results in this text go back to paper doi:10.1101/2021.09.06.459131.

The chains behind the UniProt entries cited, without tags or fusion partners.
UniProt P29350: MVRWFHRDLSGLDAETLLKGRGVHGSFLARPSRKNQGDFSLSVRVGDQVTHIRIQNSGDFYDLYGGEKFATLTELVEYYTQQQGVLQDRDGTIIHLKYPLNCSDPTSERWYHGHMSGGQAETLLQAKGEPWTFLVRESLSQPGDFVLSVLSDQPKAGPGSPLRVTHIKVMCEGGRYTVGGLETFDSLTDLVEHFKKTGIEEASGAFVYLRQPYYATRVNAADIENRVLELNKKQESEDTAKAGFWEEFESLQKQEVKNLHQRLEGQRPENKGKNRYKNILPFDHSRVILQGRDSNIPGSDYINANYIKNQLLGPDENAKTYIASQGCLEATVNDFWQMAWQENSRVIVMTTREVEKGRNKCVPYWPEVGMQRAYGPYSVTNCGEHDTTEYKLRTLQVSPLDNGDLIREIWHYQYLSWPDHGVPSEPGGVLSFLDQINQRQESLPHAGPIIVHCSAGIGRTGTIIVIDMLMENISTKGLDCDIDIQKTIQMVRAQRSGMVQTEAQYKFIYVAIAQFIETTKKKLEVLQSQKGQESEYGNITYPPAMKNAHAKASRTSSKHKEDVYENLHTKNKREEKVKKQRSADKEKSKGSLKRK
UniProt Q04759: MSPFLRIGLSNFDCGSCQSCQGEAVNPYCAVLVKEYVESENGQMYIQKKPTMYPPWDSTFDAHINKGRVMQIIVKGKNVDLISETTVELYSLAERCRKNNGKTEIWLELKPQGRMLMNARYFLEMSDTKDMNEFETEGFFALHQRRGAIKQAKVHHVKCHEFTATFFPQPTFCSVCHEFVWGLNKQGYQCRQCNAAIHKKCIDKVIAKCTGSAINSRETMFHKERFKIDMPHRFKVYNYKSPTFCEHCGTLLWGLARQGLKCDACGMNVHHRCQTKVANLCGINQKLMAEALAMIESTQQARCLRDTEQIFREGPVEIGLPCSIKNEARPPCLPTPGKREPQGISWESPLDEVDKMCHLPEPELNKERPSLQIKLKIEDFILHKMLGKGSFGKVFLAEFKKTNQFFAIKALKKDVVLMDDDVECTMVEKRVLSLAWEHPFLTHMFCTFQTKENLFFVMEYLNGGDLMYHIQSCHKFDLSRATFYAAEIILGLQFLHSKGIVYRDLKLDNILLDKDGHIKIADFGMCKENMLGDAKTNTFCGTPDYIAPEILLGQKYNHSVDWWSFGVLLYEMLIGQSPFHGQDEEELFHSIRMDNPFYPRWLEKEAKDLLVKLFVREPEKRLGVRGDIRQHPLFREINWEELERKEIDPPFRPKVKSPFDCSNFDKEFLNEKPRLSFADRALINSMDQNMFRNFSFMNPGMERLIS

No constants are given. Whether binding was seen depends on the method and setting. Binding seen in cells or lysates may run through a third protein. Some entries that bind do so weakly or less than the wild type.

The assay has as its target SHP-1 (human (endogenous in YTS-2DL1)) (UniProt P29350). Briefly: co-IP.

Take “PKC-θ (from UniProt Q04759 1-706) (enzyme)”: the binding result is “binds”.
